Measurements as given in patent US20080131366.
At least one result comes from cells or an extract, where the contact may be indirect. For some of these results: No signal at the amounts used counts as a negative.

Protein sequences, listed by entry. Tags and fused reporters are not part of them. Lines headed by an entry give the natural chain unless they say otherwise; changes in a name come on top. Residues count along the entry.
UniProt P08047, 2-785: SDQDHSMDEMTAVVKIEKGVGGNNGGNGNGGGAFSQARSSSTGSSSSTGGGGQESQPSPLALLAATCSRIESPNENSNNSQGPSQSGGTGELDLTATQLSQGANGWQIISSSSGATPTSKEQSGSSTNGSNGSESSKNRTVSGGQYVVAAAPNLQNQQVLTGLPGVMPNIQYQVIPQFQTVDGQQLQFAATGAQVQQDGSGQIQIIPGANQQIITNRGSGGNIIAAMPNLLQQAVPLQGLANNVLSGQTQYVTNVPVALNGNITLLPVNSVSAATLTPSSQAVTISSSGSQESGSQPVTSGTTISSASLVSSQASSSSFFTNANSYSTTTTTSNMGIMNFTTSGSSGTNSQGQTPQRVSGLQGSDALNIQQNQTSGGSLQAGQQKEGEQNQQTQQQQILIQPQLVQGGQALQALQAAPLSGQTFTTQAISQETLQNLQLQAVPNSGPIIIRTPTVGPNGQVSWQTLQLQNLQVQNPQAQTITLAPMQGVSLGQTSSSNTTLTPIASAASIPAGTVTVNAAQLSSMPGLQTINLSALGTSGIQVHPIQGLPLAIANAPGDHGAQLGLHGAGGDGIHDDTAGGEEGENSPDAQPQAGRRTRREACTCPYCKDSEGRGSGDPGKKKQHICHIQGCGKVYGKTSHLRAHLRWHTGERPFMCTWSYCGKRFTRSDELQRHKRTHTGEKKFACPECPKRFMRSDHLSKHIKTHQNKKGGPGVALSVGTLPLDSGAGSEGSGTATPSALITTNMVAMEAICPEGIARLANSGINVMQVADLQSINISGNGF
UniProt Q02447: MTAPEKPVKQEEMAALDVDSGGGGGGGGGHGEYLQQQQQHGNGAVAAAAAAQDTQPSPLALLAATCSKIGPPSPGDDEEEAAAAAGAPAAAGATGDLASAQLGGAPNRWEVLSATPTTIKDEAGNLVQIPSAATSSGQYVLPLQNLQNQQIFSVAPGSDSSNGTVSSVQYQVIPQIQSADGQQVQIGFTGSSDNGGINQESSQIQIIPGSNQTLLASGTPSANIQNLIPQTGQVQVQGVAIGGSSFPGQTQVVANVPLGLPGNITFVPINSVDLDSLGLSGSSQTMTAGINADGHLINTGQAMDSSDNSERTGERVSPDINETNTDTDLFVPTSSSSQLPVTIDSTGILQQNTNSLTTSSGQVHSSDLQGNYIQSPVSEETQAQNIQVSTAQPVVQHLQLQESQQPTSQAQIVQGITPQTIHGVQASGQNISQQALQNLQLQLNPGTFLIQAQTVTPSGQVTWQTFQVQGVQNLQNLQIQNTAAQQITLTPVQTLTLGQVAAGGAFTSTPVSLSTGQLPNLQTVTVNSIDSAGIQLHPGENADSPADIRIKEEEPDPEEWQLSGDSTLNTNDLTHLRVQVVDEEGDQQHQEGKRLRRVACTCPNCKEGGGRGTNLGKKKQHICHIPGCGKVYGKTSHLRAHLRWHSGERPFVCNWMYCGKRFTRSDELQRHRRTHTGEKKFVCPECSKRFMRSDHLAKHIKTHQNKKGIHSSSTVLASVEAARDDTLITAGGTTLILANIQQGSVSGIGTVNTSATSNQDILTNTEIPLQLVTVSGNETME

Columns and labels:
Sp1 (Homo sapiens) = Sp1 (Homo sapiens) (UniProt P08047); assay: EMSA; conditions: HeLa NE, protein in an extract, protein details: HeLa nuclear extract, Promega, label: 32P
Sp3 (Homo sapiens) = Sp3 (Homo sapiens) (UniProt Q02447); assay: EMSA; conditions: HeLa NE, protein in an extract, protein details: HeLa nuclear extract, Promega, label: 32P

Row | Sequence | binding result (Sp1 (Homo sapiens)) | binding result (Sp3 (Homo sapiens); Sp3 complex of different mobility from Sp1) | binding result (Sp1 (Homo sapiens); band blocked by Sp1 antibody) | binding result (Sp3 (Homo sapiens); Sp3 binding excluded by quantitative blocking with Sp1 antibody)
1 | ATTCGATCGGGGCGGGGCGAG (double strand) [consensus Sp1 probe] | binds | binds |  | 
2 | GGAGATGGGGGCAGGGCTCTATCTGCCCCAGGCTTCCGTCC (double strand) [FR-alpha P4 promoter probe -89 to -50] |  |  | binds | no binding
